According to patent CN111484554A:
No constants are given. Whether binding was seen depends on the method and setting. Some entries that bind do so weakly or less than the wild type.

By UniProt entry, the sequences of proteins in these tests, tags left out. Where a name states a change or a piece, a line headed by the entry shows the natural chain unless it says otherwise. Chains listed by the source or under a name are the forms on record and can include a tag or linker.
UniProt P41273: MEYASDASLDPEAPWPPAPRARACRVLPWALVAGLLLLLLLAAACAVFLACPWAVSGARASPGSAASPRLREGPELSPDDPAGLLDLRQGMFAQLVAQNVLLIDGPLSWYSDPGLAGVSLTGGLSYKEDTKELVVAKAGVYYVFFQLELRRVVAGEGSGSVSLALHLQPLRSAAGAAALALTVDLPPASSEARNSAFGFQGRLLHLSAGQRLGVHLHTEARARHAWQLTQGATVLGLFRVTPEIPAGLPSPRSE
4-1BB(24-180)-His重组蛋白 (4-1BB胞外段24-180位氨基酸, C端6个His) (Q07011, form named): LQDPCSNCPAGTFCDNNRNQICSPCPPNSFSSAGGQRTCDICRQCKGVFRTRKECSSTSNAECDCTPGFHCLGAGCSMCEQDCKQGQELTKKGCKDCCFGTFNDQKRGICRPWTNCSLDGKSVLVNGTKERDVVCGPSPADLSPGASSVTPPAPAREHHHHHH

Target: 全长4-1BBL (表达于293T细胞, GFP标签) (UniProt P41273)
Assay: flow cytometry on 293T cells expressing full-length 4-1BBL

binding: binds
Substance: 4-1BB(24-180)-His重组蛋白 (4-1BB胞外段24-180位氨基酸, C端6个His) (from UniProt Q07011 24-180) (receptor)
